According to patent US11155596B2, “Polypeptide” (AFFIBODY AB, priority 2016, dated 2021):

T1: human B7-H4 (R&D Systems, cat. no. 6576-B7-50) (human), Q7Z7D3
T1 chain: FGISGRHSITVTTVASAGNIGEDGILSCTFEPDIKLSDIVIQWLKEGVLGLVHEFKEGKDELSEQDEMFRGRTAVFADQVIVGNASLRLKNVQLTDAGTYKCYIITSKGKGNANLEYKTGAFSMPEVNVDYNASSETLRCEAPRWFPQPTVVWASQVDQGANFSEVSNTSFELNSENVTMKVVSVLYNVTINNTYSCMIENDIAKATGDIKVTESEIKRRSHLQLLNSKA


Molecular target: T1, human B7-H4 (R&D Systems, cat. no. …)
Assay: SPR
Settings: remark: other sources report otherwise

| Kd [µM] | Binder |
| --- | --- |
| > 5 | His6-tagged Z13156 (designed binder, here or on the partner: biotinylated in ELISA) MGSSHHHHHHLQVDAKYAKERNQAAVEILQLPNLTAAQYWAFIWKLDDDPSQSSELLSEAKKLNDSQAPKVD |
| > 5 | His6-tagged Z13165 (designed binder, here or on the partner: biotinylated in ELISA) MGSSHHHHHHLQVDAKYAKERNYAAWEILRLPNLTASQYWAFIWKLDDDPSQSSELLSEAKKLNDSQAPKVD |
